{"source": "PubChem BioAssay AID1159578, Peter MacCallum Cancer Centre | 2015", "test": "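Genome-wide hunt for genes controlling movement of lymphatic endothelial cells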 (primary screen)", "cell system": "human lymphatic endothelial cells", "knock-down reagent": "siRNA pool against human genes, 40 nM", "time to read-out": "48 h after transfection", "measurement": "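Cells stained with dye and imaged after a scratch; covered wound area and nuclei counted, duplicates averaged, migration set against mock wells and turned into a robust z-score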", "reading the numbers": "migration robust z-score: higher = faster migration into the scratch; nuclei per well: higher = more cells in the well", "active means": "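Pools averaging fewer than 3300 nuclei are never called; remaining pools count as changed when migration robust z lies outside -2 to 2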", "meaning of the calls": "active = migration changed; inactive = no migration change, or too few cells", "note": "The deposit covers about 18,000 reagents; below is a part drawn at random. About 1,030 of them (5.7%) were called active. 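Inactive calls also include pools with fewer than 3300 nuclei, whose migration was not assessed.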 Raw values vary from plate to plate and are shown uncorrected. Entries without a mark were called inactive. Further read-outs or replicates are left out here."}
{"Gene": "ADAM19 (ADAM metallopeptidase domain 19)", "PubChem SID": "SID255353770", "migration robust z-score": -0.05, "nuclei per well, duplicate mean": 5934}
{"Gene": "KLK4 (kallikrein related peptidase 4)", "PubChem SID": "SID255354418", "migration robust z-score": -1.03, "nuclei per well, duplicate mean": 5216}
{"Gene": "AP5Z1 (adaptor related protein complex 5 subunit zeta 1)", "PubChem SID": "SID255354655", "migration robust z-score": -0.37, "nuclei per well, duplicate mean": 6155}
{"Gene": "ZNF154 (zinc finger protein 154)", "PubChem SID": "SID255353250", "migration robust z-score": -0.73, "nuclei per well, duplicate mean": 6498}
{"Gene": "PRR5 (proline rich 5)", "PubChem SID": "SID255358721", "migration robust z-score": -0.37, "nuclei per well, duplicate mean": 6436}
{"Gene": "ARSD (arylsulfatase D)", "PubChem SID": "SID255348410", "migration robust z-score": -0.65, "nuclei per well, duplicate mean": 4565}
{"Gene": "LINC01973 (long independently transcribed non-coding RNA 1973)", "PubChem SID": "SID255365750", "migration robust z-score": 0.67, "nuclei per well, duplicate mean": 5741}
{"Gene": "FCN2 (ficolin 2)", "PubChem SID": "SID255349653", "migration robust z-score": 2, "nuclei per well, duplicate mean": 5924}
{"Gene": "GTF2H2C_2 (GTF2H2 family member C, copy 2)", "PubChem SID": "SID255366207", "migration robust z-score": 1.08, "nuclei per well, duplicate mean": 5934}
{"Gene": "MEP1B (meprin A subunit beta)", "PubChem SID": "SID255350939", "migration robust z-score": -0.29, "nuclei per well, duplicate mean": 5550}
{"Gene": "SNF8 (SNF8 subunit of ESCRT-II)", "PubChem SID": "SID255355722", "migration robust z-score": 1.7, "nuclei per well, duplicate mean": 6194}
{"Gene": "COIL (coilin)", "PubChem SID": "SID255353406", "migration robust z-score": 0.39, "nuclei per well, duplicate mean": 6923}
{"Gene": "EIF4G3 (eukaryotic translation initiation factor 4 gamma 3)", "PubChem SID": "SID255353727", "migration robust z-score": 0.13, "nuclei per well, duplicate mean": 5750}
{"Gene": "MYL3 (myosin light chain 3)", "PubChem SID": "SID255351109", "migration robust z-score": 0.21, "nuclei per well, duplicate mean": 4104}
{"Gene": "PAGE2B (PAGE family member 2B)", "PubChem SID": "SID255365589", "migration robust z-score": 0.86, "nuclei per well, duplicate mean": 5697}
{"Gene": "NDUFA2 (NADH:ubiquinone oxidoreductase subunit A2)", "PubChem SID": "SID255351159", "migration robust z-score": -1.94, "nuclei per well, duplicate mean": 3454}
{"Gene": "PGLYRP2 (peptidoglycan recognition protein 2)", "PubChem SID": "SID255362231", "migration robust z-score": -0.94, "nuclei per well, duplicate mean": 5296}
{"Gene": "STAG3L1 (STAG3 cohesin complex component like 1 (pseudogene))", "PubChem SID": "SID255358010", "migration robust z-score": 0.07, "nuclei per well, duplicate mean": 5376}
{"Gene": "TRAPPC14 (trafficking protein particle complex subunit 14)", "PubChem SID": "SID255358549", "migration robust z-score": 0.23, "nuclei per well, duplicate mean": 4350}
{"Gene": "CACNG5 (calcium voltage-gated channel auxiliary subunit gamma 5)", "PubChem SID": "SID255356912", "migration robust z-score": 0.16, "nuclei per well, duplicate mean": 6778}
{"Gene": "PARP10 (poly(ADP-ribose) polymerase family member 10)", "PubChem SID": "SID255361542", "migration robust z-score": 0.86, "nuclei per well, duplicate mean": 6190}

Sorted by “migration robust z-score” (high to low): 4 of the entries above
{"Gene": "SNF8 (SNF8 subunit of ESCRT-II)", "PubChem SID": "SID255355722", "migration robust z-score": 1.7, "nuclei per well, duplicate mean": 6194}
{"Gene": "COIL (coilin)", "PubChem SID": "SID255353406", "migration robust z-score": 0.39, "nuclei per well, duplicate mean": 6923}
{"Gene": "EIF4G3 (eukaryotic translation initiation factor 4 gamma 3)", "PubChem SID": "SID255353727", "migration robust z-score": 0.13, "nuclei per well, duplicate mean": 5750}
{"Gene": "MEP1B (meprin A subunit beta)", "PubChem SID": "SID255350939", "migration robust z-score": -0.29, "nuclei per well, duplicate mean": 5550}
